Measurements published in PMC8968858.
Results are given in words; binding and its absence hold for the method and conditions named. Binding seen in cells or lysates may run through a third protein. Some binding calls cover weakened binding; strength is not graded here.

By UniProt entry, the sequences of proteins in these tests, tags left out. Residues count along the entry.
UniProt Q9ULX9: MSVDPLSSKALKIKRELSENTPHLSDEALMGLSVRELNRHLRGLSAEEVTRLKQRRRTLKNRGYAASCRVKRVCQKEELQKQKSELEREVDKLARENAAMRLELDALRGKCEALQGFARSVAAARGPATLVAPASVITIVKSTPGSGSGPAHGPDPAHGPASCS
UniProt P06733, residues 94-434: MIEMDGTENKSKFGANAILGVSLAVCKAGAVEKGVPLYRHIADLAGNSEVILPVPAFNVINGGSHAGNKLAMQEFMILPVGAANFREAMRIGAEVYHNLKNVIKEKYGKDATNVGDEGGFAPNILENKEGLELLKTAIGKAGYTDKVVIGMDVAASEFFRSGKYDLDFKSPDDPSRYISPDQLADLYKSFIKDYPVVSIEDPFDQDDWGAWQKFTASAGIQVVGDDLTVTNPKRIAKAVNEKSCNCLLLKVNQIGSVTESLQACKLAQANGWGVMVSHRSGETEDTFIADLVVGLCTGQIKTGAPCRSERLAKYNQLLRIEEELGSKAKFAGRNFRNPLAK

Molecular target: MAF bZIP transcription factor F (MAFF) (human (endogenous in Caco-2)) (UniProt Q9ULX9)
Assay: co-IP; Caco-2 lysate in RIPA buffer, rabbit MAFF antibody, Protein-A agarose, washed 5 times with RIPA buffer; Western blot with MAFF and ENO1 (MBP1) antibodies

c-myc promoter binding protein 1 (MBP1) (from UniProt P06733-2 1-341)
binding: binds
